For 1 substance, binding results are on record in paper PMC8051072.

Amino acid sequences for entries named in this document (tags omitted).
UniProt P35222: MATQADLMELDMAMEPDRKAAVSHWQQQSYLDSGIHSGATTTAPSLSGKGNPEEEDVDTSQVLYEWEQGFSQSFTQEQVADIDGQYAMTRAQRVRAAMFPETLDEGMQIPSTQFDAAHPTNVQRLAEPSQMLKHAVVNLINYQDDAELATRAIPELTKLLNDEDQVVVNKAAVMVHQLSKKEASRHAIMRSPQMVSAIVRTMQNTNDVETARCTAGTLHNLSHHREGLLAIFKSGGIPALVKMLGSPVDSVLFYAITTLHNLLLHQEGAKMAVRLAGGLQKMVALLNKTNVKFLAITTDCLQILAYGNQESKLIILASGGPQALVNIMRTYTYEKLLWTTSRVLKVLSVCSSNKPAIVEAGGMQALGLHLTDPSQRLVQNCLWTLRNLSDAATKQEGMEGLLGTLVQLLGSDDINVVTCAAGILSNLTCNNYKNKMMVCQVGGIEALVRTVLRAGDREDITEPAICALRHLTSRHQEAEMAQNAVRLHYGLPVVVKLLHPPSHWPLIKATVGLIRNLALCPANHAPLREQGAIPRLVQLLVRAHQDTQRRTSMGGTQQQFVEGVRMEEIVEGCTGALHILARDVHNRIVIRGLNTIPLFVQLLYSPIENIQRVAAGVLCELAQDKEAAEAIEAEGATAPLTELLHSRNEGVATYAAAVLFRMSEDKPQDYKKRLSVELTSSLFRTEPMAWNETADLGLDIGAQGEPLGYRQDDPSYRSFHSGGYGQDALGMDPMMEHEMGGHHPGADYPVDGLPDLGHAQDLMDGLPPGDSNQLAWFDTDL

These are yes or no findings as the source states them, for the method shown. In cells and extracts the contact can be indirect. These calls come from enrichment with a bait or labelling near it, and not all partners need be listed. Tags and fused reporters may be left off the sequences shown.

This assay addresses T1, Flag-Sec62 (UniProt Q99442).
T1 sequence: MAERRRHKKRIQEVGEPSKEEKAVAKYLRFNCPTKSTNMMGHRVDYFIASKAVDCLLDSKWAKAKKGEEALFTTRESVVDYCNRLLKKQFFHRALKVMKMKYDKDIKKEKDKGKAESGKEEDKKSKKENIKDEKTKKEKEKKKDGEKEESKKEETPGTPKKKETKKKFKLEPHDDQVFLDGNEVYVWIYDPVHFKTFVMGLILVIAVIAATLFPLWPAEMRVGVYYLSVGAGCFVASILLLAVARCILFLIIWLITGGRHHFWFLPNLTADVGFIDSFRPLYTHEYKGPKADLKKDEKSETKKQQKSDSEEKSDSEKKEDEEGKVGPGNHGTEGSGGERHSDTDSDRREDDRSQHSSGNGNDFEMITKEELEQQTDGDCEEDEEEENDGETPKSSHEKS
In words: affinity purification with mass spectrometry; DLD1 cells transfected with Flag-Sec62; whole cell extracts immunoprecipitated with anti-Flag antibody affinity resin; SDS-PAGE, silver staining, mass spectrometry.

For “β-catenin (endogenous) (from UniProt P35222 1-781)”, the binding entry is “binds”.
